In the assay the target is T1, HA-Wss1 (recombinant, wild type) (S. cerevisiae) (UniProt P38838).
T1 sequence: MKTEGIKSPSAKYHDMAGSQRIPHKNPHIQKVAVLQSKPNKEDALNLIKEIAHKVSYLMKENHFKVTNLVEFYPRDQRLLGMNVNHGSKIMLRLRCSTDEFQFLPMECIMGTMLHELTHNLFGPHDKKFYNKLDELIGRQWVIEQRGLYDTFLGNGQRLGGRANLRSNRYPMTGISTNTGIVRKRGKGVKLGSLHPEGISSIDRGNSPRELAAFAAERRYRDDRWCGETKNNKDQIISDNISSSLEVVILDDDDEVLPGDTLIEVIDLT
The assay can be described thus: pull-down; purified HA-Wss1 (full length or truncated) on anti-HA beads with purified His6-Cdc48, GST-Cdc48 or HF-Doa1 (full length or truncated); western blot; both purified. On the technique in general: Immunoblotting shows a protein as a band on a membrane.

No constants are given. Whether binding was seen depends on the method and setting. A result given as binding can be weak or reduced; the word gives no strength. Where a sequence is shown, tags or fusion partners need not be part of it.

Take “GST-Cdc48 N-terminus (truncated version) (S. cerevisiae) (domain or fragment)”: the binding entry is recorded as “binds”.

(Values after article PMC4559962.)
